The results in this text go back to PubChem BioAssay AID330 (DTP/NCI, 2004).

The list does not hold the whole screen: it is rich in T/C values a quarter to a half above the control, in often repeated tests (any T/C) and in doses without a T/C. Further doses and runs are listed elsewhere. T/C: endpoint of the treated group in % of that of the vehicle group. Some entries give survivors of the animals treated and no T/C: the source holds a T/C of zero for them, seemingly a mark for toxic or unscored doses. Some survivor counts are full or nearly so, which does not show that the dose was tolerated: the source hardly ever lists a survival T/C far under the control, and the zero likely stands for such cases as well. Counts of survivors are from the toxicity check (mostly the fifth day) where no day follows; animals may have died later. Schedules are NCI's codes, read here as Q, the interval in days (D) or hours (H), X, the number of doses. Some entries were tested several times; the results are listed from low to high. For survival time, the PubChem record calls one and a half times the control and up active, and a quarter to a half above the control has no call in these data; cut-offs in other NCI protocols can differ. Some T/C values carry the count of animals alive at the toxicity check (mostly the fifth day); where none is given, no animal had died by that day.

The assay concerns P388 leukemia ip, CD2F1 mice, survival T/C. Put plainly: NCI In Vivo Anticancer Drug Screen. Data for tumor model P388 Leukemia (intraperitoneal) in CD2F1 (CDF1) mice. Particulars: T/C endpoint: median survival time, higher T/C = longer survival.
Where [1] appears, read: dose: 0.19 mg/kg/injection, schedule: Q01DX009 (ip), vehicle: saline.
Setting [2] is: dose: 200.0 mg/kg/injection, schedule: Q01DX009 (ip), vehicle: saline.
Setting [3] is: dose: 100.0 mg/kg/injection, schedule: Q01DX009 (ip), vehicle: saline with Tween-80.
Where [4] appears, read: dose: 200.0 mg/kg/injection, schedule: Q01DX009 (ip), vehicle: saline with Tween-80.
The mark [5] stands for this setting: dose: 400.0 mg/kg/injection, schedule: Q04DX003 (ip), vehicle: saline with Tween-80.
[6] abbreviates: dose: 100.0 mg/kg/injection, schedule: Q01DX005 (ip), vehicle: saline.

Consider `CCCCCCCCCCCCCC[N+]1(CC)CCCCCC1`, for which the T/C is, setting by setting: (dose: 0.09 mg/kg/injection, schedule: Q01DX009 (ip), vehicle: saline) 88, 95, 102, 117 % of control; under setting [1], 89, 99, 113 % of control; (dose: 0.39 mg/kg/injection, schedule: Q01DX009 (ip), vehicle: saline) 89, 90, 91, 117, 120 % of control. For the same molecule, the survivor count is, setting by setting: under setting [1], 6 of 6; (dose: 0.78 mg/kg/injection, schedule: Q01DX009 (ip), vehicle: saline) 3 of 6; (dose: 1.56 mg/kg/injection, schedule: Q01DX009 (ip), vehicle: saline) 2 of 6; (dose: 3.12 mg/kg/injection, schedule: Q01DX009 (ip), vehicle: saline) 2 of 6; (dose: 6.25 mg/kg/injection, schedule: Q01DX009 (ip), vehicle: saline) 0 of 6; (dose: 12.5 mg/kg/injection, schedule: Q01DX009 (ip), vehicle: saline) 0 of 6. In addition, the survivor count is, setting by setting: (dose: 50.0 mg/kg/injection, schedule: Q01DX009 (ip), vehicle: saline) 0 of 6; (dose: 100.0 mg/kg/injection, schedule: Q01DX009 (ip), vehicle: saline) 0 of 6; under setting [2], 0 of 6.

As to `CN1OC(C#N)CC1c1ccccc1` (centres undefined), the survivor count is, setting by setting: (dose: 175.0 mg/kg/injection, schedule: Q04DX002 (ip), vehicle: Klucel (hydroxypropylcellulose) (HPC)) 3 of 6; (dose: 200.0 mg/kg/injection, schedule: Q04DX002 (ip), vehicle: Klucel (hydroxypropylcellulose) (HPC)) 2 of 6; (dose: 400.0 mg/kg/injection, schedule: Q04DX002 (ip), vehicle: Klucel (hydroxypropylcellulose) (HPC)) 1 of 6.

Take `CN(C)CCCNc1nc(-c2cccc(C(Cl)(Cl)Cl)c2)nc(C(Cl)(Cl)Cl)n1`: the survivor count under setting [3] is on record as 4 of 6 and the survivor count under setting [4] is given as 0 of 6.

In the case of `CC(NC(=O)C(NC(=O)c1ccc[n+](Cc2ccccc2)c1)C(C)C)C(N)=O` (centres undefined), the survivor count (dose: 60.0 mg/kg/injection, schedule: Q01DX005 (ip), vehicle: saline) is reported as 6 of 6; the survivor count (dose: 120.0 mg/kg/injection, schedule: Q01DX005 (ip), vehicle: saline) is given as 1 of 6; the survivor count (dose: 240.0 mg/kg/injection, schedule: Q01DX005 (ip), vehicle: saline) is 0 of 6.

On to `O=C(c1ccccc1)N(C(=O)c1ccccc1)c1ccccn1`, for which the survivor count (dose: 50.0 mg/kg/injection, schedule: Q01DX009 (ip), vehicle: saline with Tween-80) is given as 6 of 6.

With `COc1cc([C@@H]2c3cc4c(c(O)c3C[C@H]3COC(=O)[C@@H]32)OCO4)cc(OC)c1O`, the T/C (dose: 0.12 mg/kg/injection, schedule: Q01DX009 (ip), vehicle: saline) is 129 % of control; the T/C (dose: 0.12 mg/kg/injection, schedule: Q01DX009 (ip), vehicle: suspension in saline) is 126 % of control; the T/C (dose: 0.25 mg/kg/injection, schedule: Q01DX009 (ip), vehicle: saline) is 127 % of control; the T/C (dose: 0.5 mg/kg/injection, schedule: Q01DX009 (ip), vehicle: saline) is 129 % of control; the T/C (dose: 0.5 mg/kg/injection, schedule: Q01DX009 (ip), vehicle: suspension in saline) was 136 % of control. The survivor count was 6 of 6 (dose: 2.0 mg/kg/injection, schedule: Q01DX009 (ip), vehicle: saline); 5 of 6 (dose: 2.0 mg/kg/injection, schedule: Q01DX009 (ip), vehicle: suspension in saline); 4 of 6 (dose: 4.0 mg/kg/injection, schedule: Q01DX009 (ip), vehicle: saline); 2 of 6 (dose: 4.0 mg/kg/injection, schedule: Q01DX009 (ip), vehicle: suspension in saline).

For `CC(C)C(NN)C(=O)O` (centres undefined), for the setting “dose: 200.0 mg/kg/injection, schedule: Q01DX005 (ip), vehicle: saline with Tween-80”, the survivor count is given as 4 of 5.

Take `CCC(c1ccc(O)cc1)C(CC)c1ccc(OC)cc1` (centres undefined): under setting [5], the survivor count is listed as 6 of 6.

`COC(=O)[C@@H]1O[C@H]2OC=C[C@H]21`: the survivor count is 4 of 5 under setting [6] and 0 of 5 (dose: 200.0 mg/kg/injection, schedule: Q01DX005 (ip), vehicle: saline).

`O=c1cc(-c2ccc(OCc3ccccc3)c(-c3c(OCc4ccccc4)cc(OCc4ccccc4)c4c(=O)cc(-c5ccc(OCc6ccccc6)cc5)oc34)c2)oc2cc(OCc3ccccc3)cc(OCc3ccccc3)c12`: the survivor count (dose: 100.0 mg/kg/injection, schedule: Q01DX001 (ip), vehicle: Klucel (hydroxypropylcellulose) (HPC)) is 6 of 6.

Take `C=CC12CCCCC1CCC(=O)C2` (centres undefined): the survivor count reads like this: (dose: 100.0 mg/kg/injection, schedule: Q01DX009 (ip), vehicle: Klucel (hydroxypropylcellulose) (HPC)) 0 of 6; (dose: 200.0 mg/kg/injection, schedule: Q01DX009 (ip), vehicle: Klucel (hydroxypropylcellulose) (HPC)) 1 of 6.

For the molecule `N#C/C(=C\c1cccs1)c1nc(-c2ccc(Cl)cc2)cs1`, under setting [2], the survivor count is given as 6 of 6.

`CCCCCCCCCCCCCCCCCC(=O)Nc1ccn(C2OC(CO)C(O)C2O)c(=O)n1` (centres undefined): the T/C under setting [3] is 126 % of control. For the same molecule, the survivor count under setting [4] was 6 of 6.

With `c1ccc(-c2cn3ccsc3n2)cc1`, for the setting “dose: 200.0 mg/kg/injection, schedule: Q01DX009 (ip), vehicle: other”, the T/C is 125 % of control [4 of 6 alive]. The survivor count (dose: 400.0 mg/kg/injection, schedule: Q01DX009 (ip), vehicle: other) is reported as 2 of 6; the survivor count (dose: 800.0 mg/kg/injection, schedule: Q01DX009 (ip), vehicle: other) is 0 of 6; the survivor count (dose: 1600.0 mg/kg/injection, schedule: Q01DX009 (ip), vehicle: other) is listed as 0 of 6.

Consider `CC[N+](C)(C)c1ccccc1`, for which the survivor count reads like this: (dose: 50.0 mg/kg/injection, schedule: Q04DX002 (ip), vehicle: saline) 3 of 6; (dose: 100.0 mg/kg/injection, schedule: Q04DX002 (ip), vehicle: saline) 0 of 6.

In the case of `O=S1(=O)OCCCCO1`, the survivor count is listed as 0 of 6 (dose: 50.0 mg/kg/injection, schedule: Q01DX005 (ip), vehicle: saline) and 0 of 6 under setting [6].

With `O=C(Nc1ccc(C2=NCCCN2)cc1)c1ccc(C(=O)Nc2ccc(C3=NCCCN3)cc2)cc1`, the T/C is 127 % of control (dose: 4.32 mg/kg/injection, schedule: Q04DX003 (ip), vehicle: Klucel (hydroxypropylcellulose) (HPC)); 131 and 136 % of control (dose: 5.0 mg/kg/injection, schedule: Q04DX003 (ip), vehicle: saline with Tween-80); 144 % of control (dose: 7.2 mg/kg/injection, schedule: Q04DX003 (ip), vehicle: Klucel (hydroxypropylcellulose) (HPC)); 130 % of control [5 of 6 alive] (dose: 10.0 mg/kg/injection, schedule: Q01DX009 (ip), vehicle: saline); 145 % of control (dose: 10.0 mg/kg/injection, schedule: Q04DX003 (ip), vehicle: saline with Tween-80); 135 [7 of 8 alive] and 144 % of control (dose: 10.8 mg/kg/injection, schedule: Q04DX003 (ip), vehicle: Klucel (hydroxypropylcellulose) (HPC)). The survivor count is, setting by setting: (dose: 30.0 mg/kg/injection, schedule: Q04DX003 (ip), vehicle: Klucel (hydroxypropylcellulose) (HPC)) 4 of 8 and 5 of 8; (dose: 50.0 mg/kg/injection, schedule: Q04DX003 (ip), vehicle: Klucel (hydroxypropylcellulose) (HPC)) 4 of 8; (dose: 100.0 mg/kg/injection, schedule: Q04DX003 (ip), vehicle: saline with Tween-80) 0 of 6; (dose: 200.0 mg/kg/injection, schedule: Q04DX003 (ip), vehicle: saline with Tween-80) 0 of 6; under setting [5], 0 of 6.
